According to the supplement of paper PMC6078165:

System: MDAMB436
Experiment: relative JC-1 red fluorescence (viability) vs pre-drug, coculture with fibroblast (fraction); higher = more viable cancer cells
Method: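 JC-1 labelled TNBC cells cocultured 1:1 (1,500 cells each) with CellTrace Violet stained primary or stromal fibroblasts in 384-well plates in FluoroBrite medium, treated with one of 42 anticancer drugs at 0.1, 1, 10 or 100 uM. JC-1 red fluorescence (mitochondrial integrity in cancer cells only) was read by plate reader every 8 h for 72 h. Values are normalised to each well's pre-drug value. The stock of one drug was tenfold lower, so its dose labels may be too high.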

CO[C@H]1C[C@@H]2CC[C@@H](C)[C@@](O)(O2)C(=O)C(=O)N2CCCC[C@H]2C(=O)O[C@H]([C@H](C)C[C@@H]2CC[C@@H](O)[C@H](OC)C2)CC(=O)[C@H](C)/C=C(\C)[C@@H](O)[C@@H](OC)C(=O)[C@H](C)C[C@H](C)/C=C/C=C/C=C/1C [Rapamycin]
relative JC-1 red fluorescence
Conditions | 8 h | 16 h | 24 h | 32 h | 40 h | 48 h | 56 h | 64 h | 72 h
10 µM, coculture fibroblast: C12385 | 0.819 ± 0.011 | 0.912 ± 0.038 | 0.925 ± 0.072 | 0.946 ± 0.058 | 0.921 ± 0.085 | 0.863 ± 0.17 | 0.877 ± 0.13 | 0.876 ± 0.092 | 0.878 ± 0.079
10 µM, coculture fibroblast: H6013 | 0.706 ± 0.014 | 0.779 ± 0.018 | 0.893 ± 0.035 | 0.931 ± 0.048 | 0.81 ± 0.13 | 0.862 ± 0.087 | 0.767 ± 0.066 | 0.863 ± 0.093 | 0.846 ± 0.032
10 µM, coculture fibroblast: H6019 | 0.748 ± 0.01 | 0.774 ± 0.0079 | 0.852 ± 0.039 | 0.865 ± 0.059 | 0.908 ± 0.095 | 0.824 ± 0.057 | 0.85 ± 0.027 | 0.8724 ± 0.0054 | 0.891 ± 0.03
10 µM, coculture fibroblast: H6076 | 0.837 ± 0.015 | 0.914 ± 0.096 | 0.938 ± 0.082 | 0.762 ± 0.04 | 0.892 ± 0.032 | 0.738 ± 0.022 | 0.879 ± 0.028 | 0.796 ± 0.024 | 0.848 ± 0.022
10 µM, coculture fibroblast: H6231 | 0.832 ± 0.21 | 0.826 ± 0.14 | 0.851 ± 0.074 | 0.893 ± 0.028 | 0.933 ± 0.018 | 0.927 ± 0.016 | 0.936 ± 0.054 | 0.93 ± 0.02 | 0.803 ± 0.16
10 µM, coculture fibroblast: HADF | 0.744 ± 0.024 | 0.7997 ± 0.0035 | 0.88 ± 0.029 | 0.944 ± 0.052 | 0.815 ± 0.16 | 0.907 ± 0.099 | 0.891 ± 0.05 | 0.86 ± 0.073 | 0.8738 ± 0.0079
10 µM, coculture fibroblast: HCFa | 0.742 ± 0.013 | 0.775 ± 0.076 | 0.832 ± 0.094 | 0.905 ± 0.1 | 0.857 ± 0.038 | 0.795 ± 0.1 | 0.78 ± 0.037 | 0.889 ± 0.14 | 0.837 ± 0.13
10 µM, coculture fibroblast: HCPF | 0.814 ± 0.017 | 0.822 ± 0.018 | 0.926 ± 0.025 | 0.916 ± 0.02 | 0.933 ± 0.015 | 0.913 ± 0.025 | 0.902 ± 0.019 | 0.879 ± 0.019 | 0.857 ± 0.012
10 µM, coculture fibroblast: HHSteC | 0.729 ± 0.018 | 0.873 ± 0.041 | 0.947 ± 0.041 | 0.949 ± 0.048 | 0.847 ± 0.073 | 0.836 ± 0.11 | 0.86 ± 0.072 | 0.931 ± 0.097 | 0.847 ± 0.14
10 µM, coculture fibroblast: HMF | 0.798 ± 0.029 | 0.795 ± 0.062 | 0.913 ± 0.044 | 0.947 ± 0.049 | 0.871 ± 0.14 | 0.837 ± 0.2 | 0.803 ± 0.049 | 0.829 ± 0.13 | 0.87 ± 0.058
10 µM, coculture fibroblast: HPFa | 0.774 ± 0.018 | 0.863 ± 0.015 | 0.933 ± 0.014 | 0.984 ± 0.013 | 0.919 ± 0.0099 | 0.86 ± 0.1 | 0.85 ± 0.2 | 0.9855 ± 0.0071 | 0.9401 ± 0.0046
10 µM, coculture fibroblast: HUF | 0.838 ± 0.059 | 0.901 ± 0.078 | 0.936 ± 0.016 | 0.949 ± 0.03 | 0.906 ± 0.093 | 0.899 ± 0.11 | 0.832 ± 0.19 | 0.944 ± 0.016 | 0.97 ± 0.024
10 µM, coculture fibroblast: Hs5 | 0.805 ± 0.025 | 0.8616 ± 0.002 | 0.942 ± 0.048 | 0.946 ± 0.07 | 0.808 ± 0.044 | 0.9 ± 0.13 | 0.749 ± 0.021 | 0.923 ± 0.065 | 0.921 ± 0.058
10 µM, coculture fibroblast: Hs27A | 0.6946 ± 0.0057 | 0.761 ± 0.014 | 0.837 ± 0.017 | 0.879 ± 0.02 | 0.8818 ± 0.0088 | 0.9617 ± 0.0068 | 0.873 ± 0.016 | 0.855 ± 0.01 | 0.7885 ± 0.0043
10 µM, coculture fibroblast: Hs343T | 0.888 ± 0.054 | 0.883 ± 0.017 | 0.95 ± 0.024 | 0.956 ± 0.029 | 0.973 ± 0.035 | 0.932 ± 0.057 | 0.937 ± 0.058 | 0.916 ± 0.045 | 0.919 ± 0.064
10 µM, coculture fibroblast: WS1 | 0.798 ± 0.014 | 0.8166 ± 0.00086 | 0.869 ± 0.018 | 0.855 ± 0.053 | 0.864 ± 0.074 | 0.866 ± 0.078 | 0.855 ± 0.077 | 0.827 ± 0.059 | 0.81 ± 0.057
100 µM, coculture fibroblast: C12385 | 0.8626 ± 0.0039 | 0.8623 ± 0.0021 | 0.754 ± 0.02 | 0.643 ± 0.02 | 0.55 ± 0.033 | 0.46 ± 0.066 | 0.39 ± 0.043 | 0.406 ± 0.033 | 0.444 ± 0.045
100 µM, coculture fibroblast: H6013 | 0.838 ± 0.0086 | 0.869 ± 0.023 | 0.907 ± 0.051 | 0.869 ± 0.032 | 0.803 ± 0.041 | 0.734 ± 0.062 | 0.629 ± 0.042 | 0.632 ± 0.096 | 0.662 ± 0.11
100 µM, coculture fibroblast: H6019 | 0.9324 ± 0.0077 | 0.918 ± 0.025 | 0.902 ± 0.044 | 0.826 ± 0.056 | 0.754 ± 0.067 | 0.652 ± 0.083 | 0.544 ± 0.081 | 0.444 ± 0.043 | 0.402 ± 0.037
100 µM, coculture fibroblast: H6076 | 0.84 ± 0.019 | 0.894 ± 0.023 | 0.808 ± 0.15 | 0.893 ± 0.12 | 0.812 ± 0.057 | 0.816 ± 0.13 | 0.74 ± 0.12 | 0.674 ± 0.15 | 0.725 ± 0.3
100 µM, coculture fibroblast: H6231 | 0.876 ± 0.013 | 0.818 ± 0.11 | 0.842 ± 0.037 | 0.741 ± 0.017 | 0.879 ± 0.064 | 0.787 ± 0.1 | 0.804 ± 0.062 | 0.749 ± 0.069 | 0.904 ± 0.1
100 µM, coculture fibroblast: HADF | 0.841 ± 0.0065 | 0.895 ± 0.025 | 0.9464 ± 0.0064 | 0.941 ± 0.012 | 0.908 ± 0.017 | 0.828 ± 0.011 | 0.727 ± 0.0089 | 0.601 ± 0.057 | 0.533 ± 0.13
100 µM, coculture fibroblast: HCFa | 0.841 ± 0.028 | 0.912 ± 0.036 | 0.923 ± 0.056 | 0.883 ± 0.043 | 0.8 ± 0.041 | 0.734 ± 0.024 | 0.5659 ± 0.0027 | 0.545 ± 0.017 | 0.55 ± 0.021
100 µM, coculture fibroblast: HCPF | 0.814 ± 0.14 | 0.865 ± 0.046 | 0.85 ± 0.11 | 0.702 ± 0.0097 | 0.857 ± 0.11 | 0.893 ± 0.057 | 0.809 ± 0.07 | 0.799 ± 0.14 | 0.754 ± 0.24
100 µM, coculture fibroblast: HHSteC | 0.815 ± 0.099 | 0.779 ± 0.062 | 0.835 ± 0.029 | 0.837 ± 0.14 | 0.75 ± 0.11 | 0.723 ± 0.031 | 0.676 ± 0.067 | 0.739 ± 0.07 | 0.761 ± 0.056
100 µM, coculture fibroblast: HMF | 0.7076 ± 0.0018 | 0.862 ± 0.028 | 0.9313 ± 0.007 | 0.83 ± 0.083 | 0.873 ± 0.05 | 0.822 ± 0.08 | 0.71 ± 0.009 | 0.825 ± 0.052 | 0.84 ± 0.088
100 µM, coculture fibroblast: HPFa | 0.861 ± 0.02 | 0.93 ± 0.015 | 0.936 ± 0.063 | 0.881 ± 0.039 | 0.9069 ± 0.0028 | 0.841 ± 0.052 | 0.853 ± 0.1 | 0.828 ± 0.022 | 0.734 ± 0.022
100 µM, coculture fibroblast: HUF | 0.953 ± 0.024 | 0.947 ± 0.05 | 0.868 ± 0.05 | 0.753 ± 0.071 | 0.625 ± 0.079 | 0.474 ± 0.089 | 0.362 ± 0.064 | 0.305 ± 0.0061 | 0.331 ± 0.0096
100 µM, coculture fibroblast: Hs5 | 0.873 ± 0.036 | 0.787 ± 0.046 | 0.862 ± 0.055 | 0.708 ± 0.023 | 0.894 ± 0.022 | 0.768 ± 0.0077 | 0.786 ± 0.09 | 0.724 ± 0.15 | 0.69 ± 0.18
100 µM, coculture fibroblast: Hs27A | 0.926 ± 0.016 | 0.822 ± 0.097 | 0.745 ± 0.034 | 0.8569 ± 0.0035 | 0.85 ± 0.022 | 0.902 ± 0.076 | 0.928 ± 0.092 | 0.723 ± 0.11 | 0.697 ± 0.059
100 µM, coculture fibroblast: Hs343T | 0.947 ± 0.057 | 0.781 ± 0.043 | 0.81 ± 0.16 | 0.848 ± 0.051 | 0.87 ± 0.14 | 0.832 ± 0.034 | 0.825 ± 0.17 | 0.687 ± 0.16 | 0.628 ± 0.12
100 µM, coculture fibroblast: WS1 | 0.935 ± 0.02 | 0.893 ± 0.024 | 0.834 ± 0.055 | 0.73 ± 0.072 | 0.62 ± 0.067 | 0.495 ± 0.035 | 0.392 ± 0.014 | 0.377 ± 0.019 | 0.409 ± 0.015

± gives the standard deviation of the averaged measurements. The reference is the same well before dosing, and untreated signal decays as well.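 Labels refer to human fibroblasts, largely primary: uterine (C12385, HUF), lung (H6013), bone (Hs27A), adrenal (HADF), skin (WS1), plus mammary HMF and breast cancer-associated Hs343T. Cancer lines are basal-like or mesenchymal-like triple-negative breast cancer. The paper counts as hits responses shifting over 3x the replicate standard deviation. The tissue of the other fibroblasts is not given here.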
